Measurements from PubChem BioAssay AID1347426 (Functional Genomics Laboratory (NCATS/FGL), 2020).
Hit rate of the full screen: of about 31,000 sequences, about 1,400 (4.5%) were called active.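 How the source made its calls: active means median seed-adjusted z-score above 1 or below -1; inactive means the rest.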 The list shows a part of the results.

test: Novel Modifiers of Survival Motor Neuron (SMN) Protein: Gene Identification via Genome-wide siRNA Screen; settings: HEK293T SMN2-luciferase reporter, siRNA knockdown, 72 h; actives lie on both sides;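 further: luminescence tracks full-length SMN protein made from the SMN2 reporter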
In short: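 HEK293T cells stably expressing an SMN2 splicing/cDNA-luciferase reporter were reverse-transfected with a druggable-genome siRNA library and read by luminescence at 72 hours; hits defined by MAD score above 1.0 or below -1.0.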

Row | Sequence | median seed-adjusted z-score
1 | AGUACUGCGUGAAGACCAATT against CDC34 | inactive: 0
2 | CCUCGGUACUGGUCUUCAUTT against LRFN3 | inactive: 0.483
3 | AAAUCGUGAUAGUUGACUATT against NANOS2 | inactive: 0.565
4 | GCUCCCAGCUUAUAUGGAUTT against COX4I1 | inactive: -0.39
5 | CCAAGACUCCAACCAUUUUTT against IKZF4 | inactive: -0.426
6 | GUCUCGGGCUAUUUCGUUATT against TMED2 | inactive: 0.288
7 | CAGCAGAGCCGAUCCAAGATT against GPR37L1 | inactive: -0.0348
8 | CCCGUGCCUUGAAGGAUGATT against CADM4 | inactive: 0.16
9 | GGAGGACUCAGACCACGAUTT against COMP | inactive: 0.331
10 | GCCUCAGUUUGAAAUUGUUTT against TBRG1 | active: -1.47
11 | AGAUCAACAGCUCCGCCUATT against AIFM2 | inactive: -0.106
12 | UUAUCUCCAUGAACCUGUATT against BDKRB2 | inactive: -0.311
13 | CACGUAAUGUGGAAAAGCATT against ZNF19 | inactive: 0
14 | CGAUGUACUCUGUCCCGAATT against MYO9B | inactive: -0.0287
15 | GGUUGAUUCUGGUCGUCGATT against ACADM | inactive: 0.127
16 | CUGCUUGGACUGUAAGAAATT against RFFL | inactive: -0.437
17 | CUACAUGACUGAAAGUACUTT against BAG4 | inactive: 0.111
18 | CAAGCGGACCAGGACCUAUTT against CSDC2 | inactive: -0.321
19 | CCGCCUGCCUUUAAAUCCATT against CEBPB | inactive: -0.748
20 | AAGCUAUACUGAUUAGAAATT against TGFA | inactive: -0.22
21 | CAACUACAACUGUGAGAUUTT against SF3A3 | active: -2.1
22 | GGAAGUAUUUCACGAAUUATT against HERC4 | inactive: 0.00343
23 | GGCCUUCAGAGUACACUAATT against SYTL4 | inactive: 0.694

Quoted from above: entries 4–19
Row | Sequence | median seed-adjusted z-score
4 | GCUCCCAGCUUAUAUGGAUTT against COX4I1 | inactive: -0.39
5 | CCAAGACUCCAACCAUUUUTT against IKZF4 | inactive: -0.426
6 | GUCUCGGGCUAUUUCGUUATT against TMED2 | inactive: 0.288
7 | CAGCAGAGCCGAUCCAAGATT against GPR37L1 | inactive: -0.0348
8 | CCCGUGCCUUGAAGGAUGATT against CADM4 | inactive: 0.16
9 | GGAGGACUCAGACCACGAUTT against COMP | inactive: 0.331
10 | GCCUCAGUUUGAAAUUGUUTT against TBRG1 | active: -1.47
11 | AGAUCAACAGCUCCGCCUATT against AIFM2 | inactive: -0.106
12 | UUAUCUCCAUGAACCUGUATT against BDKRB2 | inactive: -0.311
13 | CACGUAAUGUGGAAAAGCATT against ZNF19 | inactive: 0
14 | CGAUGUACUCUGUCCCGAATT against MYO9B | inactive: -0.0287
15 | GGUUGAUUCUGGUCGUCGATT against ACADM | inactive: 0.127
16 | CUGCUUGGACUGUAAGAAATT against RFFL | inactive: -0.437
17 | CUACAUGACUGAAAGUACUTT against BAG4 | inactive: 0.111
18 | CAAGCGGACCAGGACCUAUTT against CSDC2 | inactive: -0.321
19 | CCGCCUGCCUUUAAAUCCATT against CEBPB | inactive: -0.748

Later entries.

Row | Sequence | median seed-adjusted z-score
24 | GCAGCAUUCAGUUCACUAATT against SLC4A9 | inactive: 0
25 | CGGAAGGUGUAUGAACUGATT against ICAM1 | inactive: 0.345
26 | GGAAUUGUGACGAUCCUCATT against SEC11A | inactive: -0.494
27 | GCUCUCACCUUAAUCGACATT against ZNF187 | inactive: 0.419
28 | GAAAGUGAUUGACCGAAAATT against TRIT1 | inactive: 0.794
29 | CGUUACCUCUGGUGACUGUTT against SLC7A13 | inactive: 0.121
30 | GAAGCAGGGUUAAAGCGGATT against PRDM2 | active: 1.12
31 | GGAUGAUGUAGUACGUAAATT against MPHOSPH10 | inactive: 0.374
32 | CCUCUGCUGACCUACCAAATT against ADAT2 | inactive: 0.604
33 | GGGCUACCAUCUCCUUUCATT against SLC23A3 | inactive: -0.254
34 | CGAGGAAUGCUAGAUCACATT against SLITRK3 | inactive: -0.564
35 | CCAGGAUCCGGAUUCUGAATT against BPIL1 | inactive: 0.261
36 | GAAUCUCCAGGGUUAUGAUTT against STRADA | inactive: 0.415
37 | GAUGCUACCCUAUACGAGATT against TTC33 | inactive: 0.104
38 | GCCUAUCCUAGAACCAUCATT against KLK14 | inactive: -0.0998
39 | CACUGGAAGCAGUAACUUUTT against BACE2 | inactive: 0.0853
40 | GGUUUAACGUGUACAACAATT against PCBD1 | inactive: 0
41 | CAAAAGUGUAUAUAAACUUTT against NDUFS6 | inactive: -0.0128
42 | GAUACUACCUGGACACCGATT against FHOD1 | inactive: -0.114
43 | GAAGAACUCGAAUAUGUCATT against ASNSD1 | inactive: 0.437
44 | CCAUGAACAUCGAUCGCAATT against EHMT2 | inactive: 0.295
45 | AGUGAAAAGCGGUGAAGAATT against SLC14A2 | inactive: 0.00107
46 | CUAUUGGACAUAAUAGACATT against TYRP1 | inactive: 0.173

Row | Sequence | median seed-adjusted z-score
47 | GGAAUGUGGUAACAGGAGATT against GMPR2 | inactive: 0.232
48 | GGUACUUAUGGGAUGCUCATT against NEUROD4 | inactive: 0.0349
49 | GGAUCAUCAUCUGCAAUCATT against VHLL | inactive: -0.0852
50 | GCUGGAACUAUUAUCGUUATT against DNAJC10 | inactive: 0.0527
51 | CUCGACAAAUGGUCCUGUATT against ZNF598 | inactive: -0.303
52 | UGAGCAUGACUGAUUCCAATT against SFTPD | inactive: 0.289
53 | CAGUCACAUCAGCAGGUCATT against SYT3 | inactive: 0.221
54 | GCUCCUUGCUUGCAUCCAUTT against MC4R | inactive: 0.154
55 | GGAUGAAAGCAAUCUGAGATT against ACP1 | inactive: -0.277
56 | GGAAGUCAGCACUUACAUUTT against EEF1A1 | inactive: -0.755
57 | CAGCAAAGAUUUCCGUGAATT against ZFP161 | inactive: 0.154
58 | GGAUCAUUGUGAAGCAGCUTT against PARVB | inactive: -0.0102
59 | GUGACCAUCUUGGACAUUATT against CELSR1 | inactive: -0.466
60 | GCUUUGAGAGUGCCUCUGATT against REM1 | inactive: 0.231
61 | GGAGUAGAUGAAAACGAAATT against TLN2 | inactive: -0.0106
62 | CAUCUACACUUUCUCUAAATT against TRIM6 | inactive: -0.137
63 | GGCAGGAAGUCAAACCUAUTT against KLK2 | inactive: 0.0716
64 | GUUUUGACCCUAUAGUUUATT against P2RY5 | inactive: 0.0278
65 | GCAUCUACUUUGACCGGGATT against PISD | inactive: 0.231
66 | CCGAAGACCUGUACCAGAATT against HLCS | inactive: 0.0646
67 | CAAAUAUGAUGGACAUAGATT against LOXL3 | inactive: 0.517
68 | GGAGGUCACCGUUUGGGAUTT against DOC2B | inactive: -0.423
